This passage reports binding results from doi:10.1101/2021.08.27.457910.

These are yes or no findings as the source states them, for the method shown. For some assays here: Binding can be weak; no strength is given.

In assay [1] the target is Sgo1_(1-415) (human). Put plainly: cross-linking.
Assay [2] deals with Sgo1_(274-415)-LacI-GFP (human). The experiment in a line: LacO-LacI tethering assay.
The target of assay [3] is Sgo1_(415-527)-LacI-GFP (human). Put plainly: LacO-LacI tethering assay.
The target of assay [4] is Sgo1_(130-280 4A)-LacI-GFP (human). The experiment in a line: LacO-LacI tethering assay.
In assay [5] the target is Sgo1_(1-527 4A)-LacI-GFP (human). Put plainly: LacO-LacI tethering assay.
Assay [6] concerns the target Sgo1_(1-130)-LacI-GFP (human). Put plainly: LacO-LacI tethering assay.
Assay [7] deals with Sgo1_(130-280)-LacI-GFP (human). Put plainly: LacO-LacI tethering assay.
Assay [8] deals with Sgo1_(159-240 4A)-LacI-GFP (human). The experiment in a line: LacO-LacI tethering assay.
The target in assay [9] is Sgo1_(1-527 Nmut)-LacI-GFP (human). Put plainly: LacO-LacI tethering assay.
Assay [10] addresses Sgo1_(1-527)-LacI-GFP (human). The experiment in a line: LacO-LacI tethering assay.
The target of assay [11] is Sgo1_(159-240)-LacI-GFP (human). The experiment in a line: LacO-LacI tethering assay.

B1: Borealin_(10-280) (subunit of CPC_(ISB10-280)) (domain or fragment, UniProt Q53HL2 10-280)
chain: VAKTNSLRRRKLASFLKDFDREVEIRIKQIESDRQNLLKEVDNLYNIEILRLPKALREMNWLDYFALGGNKQALEEAATADLDITEINKLTAEAIQTPLKSAKTRKVIQVDEMIVEEEEEEENERKNLQTARVKRCPPSKKRTQSIQGKGKGKRSSRANTVTPAVGRLEVSMVKPTPGLTPRFDSRVFKTPGLRTPAAGERIYNISGNGSPLADSKEIFLTVPVGGGESLRLLASDLQRHSIAQLDPEALGNIKKLSNRLAQICSSIRTHK
As for B1, in assay [1], the binding entry was “binds”.

B2: Borealin (endogenous) (protein, UniProt Q53HL2 1-280)
chain: MAPRKGSSRVAKTNSLRRRKLASFLKDFDREVEIRIKQIESDRQNLLKEVDNLYNIEILRLPKALREMNWLDYFALGGNKQALEEAATADLDITEINKLTAEAIQTPLKSAKTRKVIQVDEMIVEEEEEEENERKNLQTARVKRCPPSKKRTQSIQGKGKGKRSSRANTVTPAVGRLEVSMVKPTPGLTPRFDSRVFKTPGLRTPAAGERIYNISGNGSPLADSKEIFLTVPVGGGESLRLLASDLQRHSIAQLDPEALGNIKKLSNRLAQICSSIRTHK
Turning to B2, the binding entry was “no binding” in assay [2]; “no binding” in assay [3]; “no binding” in assay [4]; “binds” in [5]; “binds” in assay [6]; “binds” in assay [7]. Further, the binding result in assay [8] is listed as “no binding”; in assay [9], “binds”; in [10], “binds”; in assay [11], “binds”.
